According to publication PMC7588814:
Results are given in words; binding and its absence hold for the method and conditions named. In cells and extracts the contact can be indirect. Some results given as binding are weak or reduced against the parent protein; the word gives no strength.

By UniProt entry, the sequences of proteins in these tests, tags left out.
UniProt Q61221: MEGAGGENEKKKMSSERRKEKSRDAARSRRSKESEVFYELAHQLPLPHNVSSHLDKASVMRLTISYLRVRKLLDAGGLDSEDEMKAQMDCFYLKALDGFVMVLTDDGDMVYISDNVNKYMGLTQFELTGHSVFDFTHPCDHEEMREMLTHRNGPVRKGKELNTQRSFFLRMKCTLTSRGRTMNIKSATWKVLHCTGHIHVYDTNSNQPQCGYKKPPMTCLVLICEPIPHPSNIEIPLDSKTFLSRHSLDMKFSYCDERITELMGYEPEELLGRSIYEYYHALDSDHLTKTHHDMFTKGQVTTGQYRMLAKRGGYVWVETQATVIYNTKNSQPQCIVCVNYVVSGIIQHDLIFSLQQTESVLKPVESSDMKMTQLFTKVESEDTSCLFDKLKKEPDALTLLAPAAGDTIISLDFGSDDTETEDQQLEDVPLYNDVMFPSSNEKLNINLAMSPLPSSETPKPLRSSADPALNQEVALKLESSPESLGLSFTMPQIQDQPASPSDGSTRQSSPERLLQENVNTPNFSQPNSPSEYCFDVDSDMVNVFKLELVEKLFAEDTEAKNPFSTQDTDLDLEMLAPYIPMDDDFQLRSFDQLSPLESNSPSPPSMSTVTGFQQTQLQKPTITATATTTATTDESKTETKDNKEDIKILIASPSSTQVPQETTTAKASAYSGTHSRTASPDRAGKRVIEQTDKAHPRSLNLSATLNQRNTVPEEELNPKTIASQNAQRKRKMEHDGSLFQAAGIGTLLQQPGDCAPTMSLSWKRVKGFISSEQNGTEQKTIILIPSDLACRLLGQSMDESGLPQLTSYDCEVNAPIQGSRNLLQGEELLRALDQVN

Biological target: Hypoxia-inducible factor 1 alpha (HIF-1α) (mouse (endogenous in MC-38 and CT26)) (UniProt Q61221)
Assay: co-IP; MC-38 Mock cell lysate (10 mM Tris-HCl pH 8.0, 1 mM EDTA, 400 mM NaCl, 0.1% NP-40); cells under normoxia or hypoxia (0.2% O2, 8 h) with or without LPS (1 µg/mL, 1 h); 1.5 mg lysate with 6 µg anti-TRAF6 or anti-HIF-1α and Dynabead Protein G overnight at 4 °C; blot for HIF-1α or TRAF6

- binding: binds
B1: tumor necrosis factor receptor-associated factor 6 (TRAF6) (protein, UniProt P70196 1-530)
chain: MSLLNCENSCGSSQSSSDCCAAMAASCSAAVKDDSVSGSASTGNLSSSFMEEIQGYDVEFDPPLESKYECPICLMALREAVQTPCGHRFCKACIIKSIRDAGHKCPVDNEILLENQLFPDNFAKREILSLTVKCPNKGCLQKMELRHLEDHQVHCEFALVNCPQCQRPFQKCQVNTHIIEDCPRRQVSCVNCAVSMAYEEKEIHDQSCPLANIICEYCGTILIREQMPNHYDLDCPTAPIPCTFSVFGCHEKMQRNHLARHLQENTQLHMRLLAQAVHNVNLALRPCDAASPSRGCRPEDPNYEETIKQLESRLVRQDHQIRELTAKMETQSMYVGELKRTIRTLEDKVAEMEAQQCNGIYIWKIGNFGMHLKSQEEERPVVIHSPGFYTGRPGYKLCMRLHLQLPTAQRCANYISLFVHTMQGEYDSHLPWPFQGTIRLTILDQSEALIRQNHEEVMDAKPELLAFQRPTIPRNPKGFGYVTFMHLEALRQGTFIKDDTLLVRCEVSTRFDMGGLRKEGFQPRSTDAGV
